Measured values reported in publication doi:10.1101/2020.12.28.424526 (bioRxiv, 2020).
These are yes or no findings as the source states them, for the method shown. Binding seen in cells or lysates may run through a third protein. Some entries that bind do so weakly or less than the wild type.

Biological target: T1, 5'-3' exoribonuclease-2 (XRN-2) (C. elegans (endogenous in worm lysate)) (UniProt Q9U299)
T1 sequence: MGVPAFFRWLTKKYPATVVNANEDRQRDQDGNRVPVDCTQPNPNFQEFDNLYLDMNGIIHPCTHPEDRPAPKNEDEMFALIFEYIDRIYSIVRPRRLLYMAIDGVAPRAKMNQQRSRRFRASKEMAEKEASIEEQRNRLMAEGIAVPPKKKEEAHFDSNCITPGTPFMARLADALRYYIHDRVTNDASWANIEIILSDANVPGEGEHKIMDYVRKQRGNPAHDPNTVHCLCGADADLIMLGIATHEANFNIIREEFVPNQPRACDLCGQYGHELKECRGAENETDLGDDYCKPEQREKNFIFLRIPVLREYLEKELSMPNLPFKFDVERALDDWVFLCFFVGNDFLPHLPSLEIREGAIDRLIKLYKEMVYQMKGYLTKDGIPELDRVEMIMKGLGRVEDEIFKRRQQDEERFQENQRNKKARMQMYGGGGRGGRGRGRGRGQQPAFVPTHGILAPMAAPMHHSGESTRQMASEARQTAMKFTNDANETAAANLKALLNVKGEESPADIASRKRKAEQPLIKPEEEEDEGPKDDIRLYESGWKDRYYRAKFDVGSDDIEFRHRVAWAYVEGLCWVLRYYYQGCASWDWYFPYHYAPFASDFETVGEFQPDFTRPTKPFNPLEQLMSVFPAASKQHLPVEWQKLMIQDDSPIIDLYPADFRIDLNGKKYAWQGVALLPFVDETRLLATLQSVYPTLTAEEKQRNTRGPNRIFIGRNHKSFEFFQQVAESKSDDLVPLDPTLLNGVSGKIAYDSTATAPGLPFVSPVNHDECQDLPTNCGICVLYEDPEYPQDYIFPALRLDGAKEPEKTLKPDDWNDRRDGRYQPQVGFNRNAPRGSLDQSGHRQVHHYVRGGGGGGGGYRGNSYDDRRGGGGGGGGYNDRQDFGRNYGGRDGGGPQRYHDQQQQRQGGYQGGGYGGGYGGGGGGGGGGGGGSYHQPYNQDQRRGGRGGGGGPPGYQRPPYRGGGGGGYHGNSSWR
Experiment: co-IP

B1: partner of XRN two-1 (PAXT-1) (natural protein, C. elegans (endogenous in worm lysate), UniProt Q21738 1-335, looked up)
chain: MGKLEDVEAEKKLWESDDAWELRKAFMLAHYDDYPKIQLQCLSQLFINVTLLGCEYSQTLMQKIRTMGAGIAANKDRTKTGSYVKASAAKKRQAVKTSDLEGASDESKKVKMEKSPSPVARESFDERLGKLKASLAMTPHHLTGEQMMKTATNSCLMKWHVNKINQKIEITIDRYVAFRHTFSQYCVDPRDCAINTLIESILSCDAAVHEESYEIRFDGVPVDECYAKSVTRRLAKIKSAVSNGAHTVKGLTTYLDAVNMSMIQNTQKLEGWSQQLDLVTADLLLSSRVLSSTECTKPAMATIANQMSEDVCQLILNDKINVINSMKSHSSLAFQ
binding: binds
